By UniProt entry, the sequences of proteins in these tests, tags left out.
UniProt Q0JBA9, entry or part of it: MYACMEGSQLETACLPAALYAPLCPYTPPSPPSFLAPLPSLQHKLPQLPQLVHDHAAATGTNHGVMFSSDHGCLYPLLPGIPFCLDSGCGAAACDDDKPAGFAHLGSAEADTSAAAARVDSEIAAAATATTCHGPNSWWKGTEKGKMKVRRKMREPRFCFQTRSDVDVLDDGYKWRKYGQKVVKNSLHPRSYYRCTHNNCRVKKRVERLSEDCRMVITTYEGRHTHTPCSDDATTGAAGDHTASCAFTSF

The other results are listed elsewhere or left out.
Each sequence was assayed against OsWRKY34 (Oryza sativa, UniProt Q0JBA9 1-250) (assay: protein-binding microarray (RPBM); PBS, 2% BSA, 51.3 ng/ul salmon testes DNA, 50 uM zinc acetate, 200 nM TF, 25 C, 1 h; high values mean tight binding). Details: protein: recombinant; tags: N-terminal polyhistidine and DsRed monomer fusion (pET32a); label: CyDye5-dUTP incorporated in the synthesized complementary strand; 3' TTTTT single-stranded linker to array surface; dsDNA, one strand shown.
Method in brief: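 An Axon 4000B scanner gave the binding signal as per-feature fluorescence intensity in arbitrary units. This followed washing of a custom Agilent array that had been incubated for 1 h at 25 °C with 200 nM protein in PBS, 2% BSA, salmon testes DNA and 50 µM zinc acetate. The proteins were transcription factors fused at the N-terminus to polyhistidine and DsRed, expressed in E. coli BL21-CodonPlus and purified on Ni–NTA.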
With “TCATAGTTGTCCAAAACACGATTTTTCTTCCTACGTACGTCGGAGTCACCTAGTGCAG” the binding signal was 8130 fluorescence intensity (a.u.).
With “ATTACTACTGTAGTACCACTAGTAGTTTTTTATTACTGCTCGGAGTCACCTAGTGCAG” the binding signal was 8590 fluorescence intensity (a.u.).
“TTGTTTTGCCTTTGCTCCTGTTTTACCAATAGCACACTATCGGAGTCACCTAGTGCAG” was tested, and the binding signal was 11600 fluorescence intensity (a.u.).
With “GCCGTACGTGTTCCGCCGGCCTCTTCCTTTCCTTGCTTCACGGAGTCACCTAGTGCAG” the binding signal was 12400 fluorescence intensity (a.u.).
With “GGCCCTTATATTTTACTTTGACACCCGCAGACTTGCGAGCCGGAGTCACCTAGTGCAG” the binding signal was 8730 fluorescence intensity (a.u.).
In the case of “TTATTGTTGTGCTTGTATCTGCTACCTATTTTTACATTCACGGAGTCACCTAGTGCAG”, the binding signal is reported as 9250 fluorescence intensity (a.u.).
In the case of “CGCCCACCACCATTGTTCTGTTGCTGTTCCGCTGCGCTAGCGGAGTCACCTAGTGCAG”, the binding signal is reported as 8970 fluorescence intensity (a.u.).
“GTGTGTGTAATGTCTATGTTTGTATTATGATTCAAAAAAACGGAGTCACCTAGTGCAG” was tested, and the binding signal was 10600 fluorescence intensity (a.u.).
With “AATTTAGTCTGTACTGCAGCTTATAAAGCTGTCCCATACTCGGAGTCACCTAGTGCAG” the binding signal was 8110 fluorescence intensity (a.u.).
With “AGGCAAGAGCTAATCTTCGTGTTTCTTATCTTTTCTTATTCGGAGTCACCTAGTGCAG” the binding signal was 8040 fluorescence intensity (a.u.).
With “CATTGCTGCCGTCTTCTACCTTATTACCCAAACTCGTAGACGGAGTCACCTAGTGCAG” the binding signal was 8860 fluorescence intensity (a.u.).
With “CGAAGACAGCATCTCGTTGACCCTTGTCCTTGACACTGTTCGGAGTCACCTAGTGCAG” the binding signal was 11700 fluorescence intensity (a.u.).
In the case of “CATGAAAACAGAGCGTCTTATCTTATCTGCATCCAACTGTCGGAGTCACCTAGTGCAG”, the binding signal is reported as 9330 fluorescence intensity (a.u.).
“CTTTGCACAGAGTTCTTATCTCAGTTTTCCTAACTCACCTCGGAGTCACCTAGTGCAG” was tested, and the binding signal was 11300 fluorescence intensity (a.u.).
“GGTACAATCCTCCAATTCCCATTCCCATTCCCATTCCCAACGGAGTCACCTAGTGCAG” was tested, and the binding signal was 8160 fluorescence intensity (a.u.).
In the case of “AAATCATACTATCCCATGTGTTACTGTACTACTATACGGTCGGAGTCACCTAGTGCAG”, the binding signal is reported as 8280 fluorescence intensity (a.u.).
For “TTTCTTGTTGCTGGGTCTGGATTAGGCCTATTACTTCTATCGGAGTCACCTAGTGCAG”, the binding signal was 8390 fluorescence intensity (a.u.).
In the case of “GAGTGCATTTCCTGGGTATTATTTTTGTTATCATTTATATCGGAGTCACCTAGTGCAG”, the binding signal is reported as 9800 fluorescence intensity (a.u.).
With “CATGATCAAATCTGGCGTACGTTACCGTTTTACTAGATTACGGAGTCACCTAGTGCAG” the binding signal was 8870 fluorescence intensity (a.u.).
In the case of “TCAGGTGATCTTCCATTCTTCCCATCATTATTTCTTTGATCGGAGTCACCTAGTGCAG”, the binding signal is reported as 12700 fluorescence intensity (a.u.).
With “AATGTATGACGCAGTTGACTTTGTGACAAACGTTTGACCTCGGAGTCACCTAGTGCAG” the binding signal was 12300 fluorescence intensity (a.u.).
With “GAGGGGTGCTTGGAGTGCGGGGTGTGCTATCAATGATGGTCGGAGTCACCTAGTGCAG” the binding signal was 10700 fluorescence intensity (a.u.).
In the case of “TTGACGCCGTTGACTTTTTAGTACATGTTTGACCATTCGTCGGAGTCACCTAGTGCAG”, the binding signal is reported as 49900 fluorescence intensity (a.u.).
For “TTGACCTTTTCTCACATGTTTAACCATTCGTCTTATTTAACGGAGTCACCTAGTGCAG”, the binding signal was 13500 fluorescence intensity (a.u.).
“TTTGCATAGTTAGGGGTGAAGACTGTCCGGTTTTGTGGTTCGGAGTCACCTAGTGCAG” was tested, and the binding signal was 8200 fluorescence intensity (a.u.).
With “GTCCAAACTAACCCCACCAAAGCTAAAACGTCATTTATTTCGGAGTCACCTAGTGCAG” the binding signal was 8970 fluorescence intensity (a.u.).
With “TACGGTCTCGTCGGTATCATCGAATTCTGTTATTCCCTTTCGGAGTCACCTAGTGCAG” the binding signal was 8410 fluorescence intensity (a.u.).
“TGGCTCATTTACGTTTCGTTTAGGTTTCTCCATTCATCAACGGAGTCACCTAGTGCAG” was tested, and the binding signal was 8760 fluorescence intensity (a.u.).
For “GGCCCCTACTGGCGCCTCGTCCGCCGCAACCTCGCCTCCGCGGAGTCACCTAGTGCAG”, the binding signal was 8340 fluorescence intensity (a.u.).
In the case of “ACCTTGACTCCTCCAATTCTCCTTTATTTTTTCTGTCTATCGGAGTCACCTAGTGCAG”, the binding signal is reported as 14900 fluorescence intensity (a.u.).
In the case of “CCCTACCGTTACATTTTTCCATCATTTTACTGTTACGTTTCGGAGTCACCTAGTGCAG”, the binding signal is reported as 11000 fluorescence intensity (a.u.).
“CGTACTGGGCTGGGCTGGGCTGGGATTCAACCGAACGGGGCGGAGTCACCTAGTGCAG” was tested, and the binding signal was 20400 fluorescence intensity (a.u.).
In the case of “TCCATTTTGTCGGTTCTTCTCTTGATCTGTCGGTGTTCTTCGGAGTCACCTAGTGCAG”, the binding signal is reported as 11100 fluorescence intensity (a.u.).
In the case of “TTTTGTCTGCTAGGGGTAGTAAGGTGGGGCCACTGAAAAACGGAGTCACCTAGTGCAG”, the binding signal is reported as 9640 fluorescence intensity (a.u.).
In the case of “ACTGTATATTCTCAAGGGCGGGCTCCGTCAGGGTGATGTCCGGAGTCACCTAGTGCAG”, the binding signal is reported as 11800 fluorescence intensity (a.u.).
For “CTCAAGAGGATGTCCCCACGTGTATCTTTTCCTTTCAAATCGGAGTCACCTAGTGCAG”, the binding signal was 8890 fluorescence intensity (a.u.).
In the case of “CTTCGCTTGCTCTCTTCTCTTCTCCGAGGTGCCAAACATACGGAGTCACCTAGTGCAG”, the binding signal is reported as 11200 fluorescence intensity (a.u.).
With “TAGGGGTTAGTGTGCGAGCATGTGCTGTGTAATTTTTTAACGGAGTCACCTAGTGCAG” the binding signal was 10600 fluorescence intensity (a.u.).
With “TGACCGAGCCATTCGACTCACTGAGCTTGTTTCTTGTCATCGGAGTCACCTAGTGCAG” the binding signal was 8400 fluorescence intensity (a.u.).
For “GATTACTTAGTGTCAAGCGCTCTTCGTCGATGTCGACGCTCGGAGTCACCTAGTGCAG”, the binding signal was 8410 fluorescence intensity (a.u.).
In the case of “ACAAAAGTGGACATTGGGTGGGTCAAAACTGGGATTAAATCGGAGTCACCTAGTGCAG”, the binding signal is reported as 11200 fluorescence intensity (a.u.).
With “TTTCCGCCCACATCGCCTTCTACCTCTCGCACTCCGCTAGCGGAGTCACCTAGTGCAG” the binding signal was 13200 fluorescence intensity (a.u.).

Reference: article PMC7819943, “Rice protein-binding microarrays: a tool to detect cis-acting elements near promoter regions in rice”
